This data set relates to Trastuzumab. Nature of the data set: SPR binding kinetics and thermodynamics of heme to immobilized Trastuzumab. How it is done: Trastuzumab was immobilized on a CMS sensor chip (Biacore) by using amine-coupling kit provided by the manufacturer. The Ab was diluted in 5 mM maleic acid (pH 4) to a final concentration of 10 μg/ml. The achieved immobilization level was 6300 resonance unit (RU). All measurements were performed using HBS-EP (0.01M HEPES, pH 7.4 containing 0.15 M NaCl, 3 mM EDTA and 0.05% Tween 20). Initially, a stock solution of heme (hemin, Frontiers Scientific, Logan, Utah) at 1 mM was prepared in 0.05 N NaOH. Heme was further diluted to 10 μM in the running buffer and 8 two-fold dilutions (10-0.078 μM) were injected at flow rate of 30 μl/min. The association and dissociation phases of the interaction were monitored for 5 min and 10 min, respectively. The binding to the surface of the reference flow cell was subtracted from the binding to the Ab-coated flow cells. The regeneration of the bound-heme was achieved by exposure of the sensor surface to 300 mM imidazole. All binding analyses were performed at temperatures of 5, 10, 15, 20, 25, 30 and 35° C. The BIAevaluation version 4.1 software (Biacore) was used for the estimation of the kinetic rate constants. Calculations were performed by global analyses of the experimental data using the Langmuir binding with drifting base-line model included in the software.
Heme was diluted at 10 μM in HBS-EP and injected at flow rate of 30 ul/min. The association and dissociation phases of the interaction were monitored for 5 min and 10 min, respectively. Analysis was performed as described above.
The kinetic rate constants obtained at different temperatures were used to build Arrhenius plots. The values of slopes of the Arrhenius plots were calculated by using a linear regression analysis of the experimental kinetic data and substituted in Equations 1-4,
Where the “slope”=∂1n(ka/d/∂(1/T), and where Ea is the activation energy. The enthalpy, entropy, and Gibbs free energy changes characterizing the association phase were calculated using Equations 2-4,
1n(ka/d/T)=ΔH/RT+ΔS/R+1n(k′/h) (Eq. 3)
where T is the temperature in Kelvin, k′ is the Boltzmann constant, and h is Planck's constant. All activation thermodynamic parameters were determined at the reference temperature of 25° C. (298.15 K).
To evaluate the changes of the thermodynamic parameters at equilibrium following equation were applied—
? Geq= ? G‡a− ? G‡d,
? Heq= ? H‡a− ? H‡d,
T ? Seq=T ? S‡a−T ? S‡d
(In SPR one partner is held on a chip, and binding of the other changes the refractive index at the surface.)

Setting [1] is: dissociation phase, apparent value.

Results on one substance are retold here after patent US20220047701A1, “COMBINATION OF HER2/NEU ANTIBODY WITH HEME FOR TREATING CANCER” (INSERM (Institut National de la Santé et de la Recherche …, priority 2018, published 2022).

With iron protoporphyrin IX [heme], the ΔH during association (association phase, apparent value, 25° C.) came out at 40.2 ± 7.2 kJ·mol·L. Further, for the setting “association phase, reference temperature 25° C.”, the “TΔS during the association” value was -12.4 ± 7.3 kJ·mol·L. Under setting [1], the TΔS during dissociation result is given as “negative” and the ΔH during dissociation result is on record as “negative”. For the setting “equilibrium”, this substance returned a TΔS at equilibrium of 127 ± 18.3 kJ·mol·L and a ΔH at equilibrium of 87.7 ± 18.9 kJ·mol·L.
